Measured values taken from PubChem BioAssay AID485314 (National Center for Advancing Translational Sciences (NCATS), 2010).
The campaign covered roughly 340,000 compounds. About 4,500 (1.3%) were called active. Inconclusive results, whose numbers are uncertain, are shown with a selection of clear calls. Calls follow the shape of the dose curve; as a rule, active = well fitted inhibition curve with a large enough effect; inconclusive = small, poorly fitted or top-dose-only effect, or another doubt; inactive = no such curve, though single readings can be large or run the other way. A potency beside an inconclusive call is a rough fit, not a confirmed value.

Target: DNA polymerase beta (Homo sapiens) (UniProt P06746)
Assay: qHTS Assay for Inhibitors of DNA Polymerase Beta
Conditions: Pol beta primer extension/strand displacement, fluorescence kinetic; activity change, negative = inhibition: at 114 µM (top of the series)
In short: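 Pol beta (10 nM) was preincubated with compound for 15 min at room temperature. The reaction was then started with 50 nM substrate and read immediately and after a further 10 min at room temperature.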
% is scaled to controls: 0 for no effect and ±100 for the full control effect; potency is read from the fitted curve at half-maximal effect.

Compound | activity change, negative = inhibition | Potency
COC(=O)c1ccc(C2=NOC(C)(c3sc(-c4ccc(Cl)cc4)nc3C)C2)cc1 (stereo not drawn) | inactive: 19.2% | –
COc1cc(CN(C(=O)COc2ccc(C)cc2)c2ccccn2)cc(OC)c1OC | – | inconclusive: 89.1 µM [inhibitor, single point]
O=C(CCNC(=O)Cn1ccc2ccccc2c1=O)NCCC1=CCCCC1 | – | inconclusive: 12.6 µM [inhibitor, partial curve, poor fit]
Cn1c(=O)n(-c2ccc3c(c2)OCO3)c2nc(-c3ccccc3)nc(C(N)=O)c21 | – | active: 6.31 µM
CC(C)CCNC(=O)CN(Cc1ccccc1Cl)C(=O)CCC(=O)Nc1ccccn1 | – | inconclusive: 56.2 µM [inhibitor, partial curve, poor fit]
CCOC(=O)C1(CCCc2ccccc2)CCN(C(=O)c2cc(C)nc(C)n2)CC1 | – | inconclusive: 89.1 µM [inhibitor, single point]
C#CCOCCOCCOCCNc1nc(N2CCN(C(=O)[C@H](CCC(=O)O)n3cc(C(N)Cc4ccc(O)cc4)nn3)CC2)nc(N2CCN(C(=O)[C@H](Cc3cc4ccccc4[nH]3)n3cc(C(N)CC(C)C)nn3)CC2)n1 (stereo partly drawn) | inactive: -6.01% | –
Cc1ccc(-c2ccc(C(=O)NCc3ccccc3)o2)c2ccccc12 | inactive: -9.19% | –
Cc1cccc(NC(=O)CN2C(=O)S/C(=C\c3ccc(O)c([N+](=O)[O-])c3)C2=O)c1 | – | inconclusive: 50.1 µM [inhibitor, partial curve]
COc1ccc(Nc2nc(=O)c3cc([N+](=O)[O-])ccc3s2)cc1 | inconclusive: -83.7% [inhibitor] | –
Cc1ccc(C(=O)C(NC(=O)c2ccco2)Nc2sc3c(c2C(N)=O)CCCC3)cc1 (stereo not drawn) | – | inconclusive: 89.1 µM [inhibitor, single point]
CCc1ccccc1NC(=O)Cn1nnc(C(=O)NCc2ccccc2Cl)c1N | – | active: 70.8 µM
N#Cc1ccc2ccn(CC(=O)NC3CCCCC3)c2c1 | – | inconclusive: 2 µM [inhibitor, partial curve, poor fit]
CCN(CC)CC(C)CNC(=O)c1cc(-c2ccc(Br)s2)nc2ccccc12 (stereo not drawn) | inactive: -26.8% | –
O=c1/c(=C/c2ccc(O)cc2)sc2nc3cc(Br)cnc3n12 | – | inconclusive: 15.8 µM [inhibitor, partial curve]
CCOc1ccc(C(=O)NC(=S)Nc2cc(C)ccn2)cc1[N+](=O)[O-] | – | active: 31.6 µM
O=C(O)CCN1C(=O)C(=C2CCCCCC2)SC1=S | – | inconclusive: 89.1 µM [inhibitor, single point]
O=C(/C=C/c1ccc(O)c(O)c1)NC(=O)c1ccccc1O | – | active: 10 µM
O=C(NNC(=O)c1ccccc1Cl)c1ccccc1Cl | – | active: 89.1 µM
COc1cc2cc(Oc3ccc4ccc(=O)oc4c3)c(=O)oc2cc1OC1OC(COC(=O)CC(C)(O)CC(=O)O)C(O)C(O)C1O (stereo not drawn) | – | inconclusive: 44.7 µM [inhibitor, partial curve]
O=C(O)CC(C(=O)O)c1cn(Cc2ccccc2)c2ccccc12 (stereo not drawn) | – | inconclusive: 14.1 µM [inhibitor, partial curve]
CC(=O)c1ccc(NC(=S)NC(C)c2ccc(Cl)cc2Cl)cc1 (stereo not drawn) | – | inconclusive: 22.4 µM [inhibitor, full curve, poor fit]
Cc1ccc2nc(-c3ccccc3F)c(Nc3ccc(Cl)cc3)n2c1 | – | inconclusive: 89.1 µM [inhibitor, single point]

Compound | activity change, negative = inhibition | Potency
Cc1ccccc1/C=N/Nc1ccnc2cc(Cl)ccc12 | – | inconclusive: 22.4 µM [inhibitor, full curve, poor fit]
Cc1csc(NC(=O)CCCSc2nc3ccccc3s2)n1 | – | inconclusive: 79.4 µM [inhibitor, single point]
COc1ccc(N2CC(C(=O)NC3CCSC3=O)CC2=O)cc1 (stereo not drawn) | inactive: 14.3% | –
O=C1Nc2ccccc2/C1=C/c1cnc(-c2ccccc2)[nH]1 | – | active: 22.4 µM
O=C(NC1CC(=O)N(c2cccc(F)c2)C1)C1CCCC1 (stereo not drawn) | – | inconclusive: 89.1 µM [inhibitor, single point]
CCOC(=O)CCNC(=O)CCc1nnc(CCCc2ccccc2)o1 | – | inconclusive: 39.8 µM [inhibitor, single point]
O=C(NCc1nnc2n1CCCCC2)c1ccc(Cl)cc1Cl | – | inconclusive: 79.4 µM [inhibitor, single point]
O=C(c1cccc(-n2cccc2)c1)N1CCN(S(=O)(=O)c2c(F)cccc2F)CC1 | – | inconclusive: 2.51 µM [inhibitor, partial curve]
COc1ccccc1-n1ncc2c(=O)[nH]c(SCC(=O)Nc3ccc(Cl)cc3)nc21 | inactive: 19% | –
O=C1C=C(O)c2c(O)cccc2C1=O | – | active: 15.8 µM
Cn1cc([N+](=O)[O-])c(C(=O)Nc2cc(Oc3ccccc3)cc([N+](=O)[O-])c2)n1 | – | inconclusive: 28.2 µM [inhibitor, full curve]
O=C(Cc1cccs1)NC1CC(=O)N(c2cccc(F)c2)C1 (stereo not drawn) | inactive: 19.6% | –
O=C(NCCN1C(=O)S/C(=C\c2ccccc2F)C1=O)C1CCN(S(=O)(=O)c2cccs2)CC1 | – | inconclusive: 39.8 µM [inhibitor, single point]
Cn1nc(-c2ccc(Cl)cc2)c2cc(C(=O)N3CCCC3)sc21 | – | inconclusive: 0.398 µM [inhibitor, full curve]
Cc1ccc(NC(=O)C2CCN(S(=O)(=O)c3c(C)noc3C)CC2)c(C)c1 | inactive: 2.69% | –
CC1=C(C(=O)N2CCCC(C(=O)c3cccc(C(F)(F)F)c3)C2)OCCO1 (stereo not drawn) | – | inconclusive: 6.31 µM [inhibitor, partial curve, poor fit]
CCOC(=O)N/N=C1\CCS(=O)(=O)c2ccc(Cl)cc21 | – | inconclusive: 89.1 µM [inhibitor, single point]
COc1ccc(-n2c(SCC(=O)N/N=C/c3ccccc3OCC(=O)O)nc3ccccc3c2=O)cc1 | inconclusive: -134% [inhibitor] | –
Nc1cccc(-c2nc3ccccc3[nH]2)c1 | inactive: -9.35% | –
CCOC(=O)c1cnc(-c2ccccc2)nc1Oc1ccc(Cl)cc1 | – | inconclusive: 0.891 µM [inhibitor, full curve, poor fit]
COc1cccc(NS(=O)(=O)c2ccc3c(c2)C2C=CCC2C(c2ccc(C(=O)O)cc2)N3)c1 (stereo not drawn) | – | inconclusive: 89.1 µM [inhibitor, single point]
COC(=O)CSc1nc(-c2ccccc2)cc(-c2ccco2)c1C#N | – | active: 28.2 µM
Cc1ccccc1OCc1nnc(SCC(=O)O)n1-c1ccccc1 | inactive: -26.3% | –

Pulled one by one from above (2):
Compound | activity change, negative = inhibition | Potency
CCOC(=O)c1cnc(-c2ccccc2)nc1Oc1ccc(Cl)cc1 | – | inconclusive: 0.891 µM [inhibitor, full curve, poor fit]
Cc1ccc(NC(=O)C2CCN(S(=O)(=O)c3c(C)noc3C)CC2)c(C)c1 | inactive: 2.69% | –

Remaining list, next part.

Compound | activity change, negative = inhibition | Potency
Cc1cc(C)c2oc(C(=O)Nc3ccc(S(=O)(=O)N4CCCCC4)cc3)cc(=O)c2c1 | inactive: 11.1% | –
COC/C=C/C1=CC2=CC(=O)C(C)(OC(=O)c3cnc4ccccc4n3)C(=O)C2=CN1c1ccccc1 (stereo not drawn) | – | inconclusive: 56.2 µM [inhibitor, partial curve]
C/C(=N\Nc1nc2ccccc2c(=O)n1O)c1ccco1 | – | inconclusive: 3.55 µM [inhibitor, full curve]
CCOC(=O)c1ccc(-n2c(C)nc3c(cnn3-c3ccccc3Cl)c2=O)cc1 | – | inconclusive: 5.01 µM [inhibitor, partial curve, poor fit]
O=C(Nc1nc(-c2ccccc2)cs1)C1COc2ccccc2O1 (stereo not drawn) | inactive: 2.86% | –
O=C(c1ccccc1)c1ccc(OCC(O)CNCc2ccc(Cl)cc2)cc1 (stereo not drawn) | inactive: 0.782% | –
Cc1csc(NC(=O)c2ccc(C)c(S(=O)(=O)N3CCOCC3)c2)n1 | – | inconclusive: 0.316 µM [inhibitor, full curve]
CC(=O)Nc1ccc(S(=O)(=O)Nc2cccc(-c3ccc4nncn4n3)c2)cc1 | – | inconclusive: 28.2 µM [inhibitor, single point]
CCc1nnc(NS(=O)(=O)c2ccc(NC(=O)c3ccc(Cl)cc3)cc2)s1 | – | inconclusive: 39.8 µM [inhibitor, partial curve, poor fit]
O=C(Oc1ccc2ccc(=O)oc2c1)c1ccccc1 | – | inconclusive: 25.1 µM [inhibitor, full curve, poor fit]
COc1cccc(C(=O)NCC(=O)OCc2cc(=O)n3nc(C)sc3n2)c1 | inactive: 0.0445% | –
O=C(CSc1ncc(S(=O)(=O)c2ccc(Cl)cc2)c(=O)[nH]1)Nc1ccc2c(c1)OCCO2 | – | inconclusive: 20 µM [inhibitor, partial curve]
CCC(Oc1ccccc1)C(=O)Nc1ccccc1N1CCCCC1 (stereo not drawn) | – | inconclusive: 79.4 µM [inhibitor, partial curve]
CCCc1cc(=O)n2[nH]c(NCc3ccc(CC)cc3)nc2n1 | inactive: 3.13% | –
Cc1cc2c(C)nc(N/N=C/c3ccc(F)cc3)nc2o1 | – | inconclusive: 39.8 µM [inhibitor, single point]
O=C(/C=C/c1ccccc1[N+](=O)[O-])N1CCN(C(=O)c2ccco2)CC1 | – | inconclusive: 89.1 µM [inhibitor, single point]
CCc1ccc(CNc2ccc(O)cc2)cc1 | – | inconclusive: 15.8 µM [inhibitor, full curve, poor fit]
Cc1ccc(NC(=O)CCCn2c3ccccc3c(=O)c3cc(C)ccc32)c(Br)c1 | inconclusive: -73.5% [inhibitor] | –
O=C(Nc1ccc(F)cc1)c1cccc(N2C(=O)c3ccccc3C2=O)c1 | – | inconclusive: 39.8 µM [inhibitor, partial curve]
OC(COC(c1ccc(Cl)cc1)c1ccc(Cl)cc1)CN1CCCC1 (stereo not drawn) | – | inconclusive: 100 µM [inhibitor, single point]
Cc1cccc(C)c1NC(=S)Nc1ccc(Cl)c(Cl)c1 | inactive: -11.5% | –

Filtered by structure: those above with two or more sulfur atoms
Compound | activity change, negative = inhibition | Potency
O=C(O)CCN1C(=O)C(=C2CCCCCC2)SC1=S | – | inconclusive: 89.1 µM [inhibitor, single point]
Cc1csc(NC(=O)CCCSc2nc3ccccc3s2)n1 | – | inconclusive: 79.4 µM [inhibitor, single point]
O=C(NCCN1C(=O)S/C(=C\c2ccccc2F)C1=O)C1CCN(S(=O)(=O)c2cccs2)CC1 | – | inconclusive: 39.8 µM [inhibitor, single point]
Cc1csc(NC(=O)c2ccc(C)c(S(=O)(=O)N3CCOCC3)c2)n1 | – | inconclusive: 0.316 µM [inhibitor, full curve]
CCc1nnc(NS(=O)(=O)c2ccc(NC(=O)c3ccc(Cl)cc3)cc2)s1 | – | inconclusive: 39.8 µM [inhibitor, partial curve, poor fit]
O=C(CSc1ncc(S(=O)(=O)c2ccc(Cl)cc2)c(=O)[nH]1)Nc1ccc2c(c1)OCCO2 | – | inconclusive: 20 µM [inhibitor, partial curve]
